The values below come from paper PMC4239118.

Experiment in all cases: affinity purification with mass spectrometry; GFP-trap beads incubated with crude cell extracts of N. crassa strains expressing GFP fusions, 2 h at 4°C, three washes with IP buffer; hits filtered against control purifications with GFP as bait; two biological replicates
Test [1] has as its target GFP-fusion protein of MAK-2 (Neurospora crassa) (UniProt V5IKE7).
Test [2] concerns the target T1, STE-20-GFP (Neurospora crassa) (UniProt Q7RZD3).
T1 sequence: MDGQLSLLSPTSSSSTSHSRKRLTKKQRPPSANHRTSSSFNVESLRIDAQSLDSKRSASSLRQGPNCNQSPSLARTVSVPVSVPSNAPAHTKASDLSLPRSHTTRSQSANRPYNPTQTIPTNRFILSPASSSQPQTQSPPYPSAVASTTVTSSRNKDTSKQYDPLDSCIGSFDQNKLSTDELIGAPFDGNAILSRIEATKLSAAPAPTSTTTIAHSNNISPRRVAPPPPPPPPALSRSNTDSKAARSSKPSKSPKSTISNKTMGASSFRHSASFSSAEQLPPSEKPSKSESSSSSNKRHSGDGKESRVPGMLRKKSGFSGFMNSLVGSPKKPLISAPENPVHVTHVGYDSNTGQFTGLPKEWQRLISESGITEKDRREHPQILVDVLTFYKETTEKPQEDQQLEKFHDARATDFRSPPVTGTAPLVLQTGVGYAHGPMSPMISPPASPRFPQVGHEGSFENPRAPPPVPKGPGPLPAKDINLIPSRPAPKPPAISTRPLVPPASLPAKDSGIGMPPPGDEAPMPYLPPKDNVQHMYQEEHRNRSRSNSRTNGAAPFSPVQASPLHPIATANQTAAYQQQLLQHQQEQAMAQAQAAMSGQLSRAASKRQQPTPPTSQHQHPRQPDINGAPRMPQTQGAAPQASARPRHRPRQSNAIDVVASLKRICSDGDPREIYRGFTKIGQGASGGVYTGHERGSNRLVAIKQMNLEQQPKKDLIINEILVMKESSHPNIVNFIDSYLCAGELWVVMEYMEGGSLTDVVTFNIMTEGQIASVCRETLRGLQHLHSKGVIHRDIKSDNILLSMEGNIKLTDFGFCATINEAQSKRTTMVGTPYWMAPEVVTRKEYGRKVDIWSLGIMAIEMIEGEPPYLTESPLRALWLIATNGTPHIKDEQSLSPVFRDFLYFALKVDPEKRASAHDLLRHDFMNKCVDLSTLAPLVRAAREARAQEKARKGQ

Test [3] addresses GFP-STE-50 (Neurospora crassa) (UniProt Q7RXY9).
In test [4] the target is GFP-fusion protein of NRC-1 (Neurospora crassa).
Test [5] deals with GFP-fusion protein of MAK-2 (Neurospora crassa) (UniProt V5IKE7). The source holds these as a separate data set.
Test [6] concerns the target GFP-fusion protein of MEK-2 (Neurospora crassa).
For test [7], the target named is T1, STE-20-GFP (Neurospora crassa). The source holds these as a separate data set.
Test [8] addresses GFP-STE-50 (Neurospora crassa) (UniProt Q7RXY9). The source holds these as a separate data set.

Read-outs that look alike come from different tables or passages of the source. These are yes or no findings as the source states them, for the method shown. In cells and extracts the contact can be indirect. These calls come from enrichment with a bait or labelling near it, and not all partners need be listed. For part of these data: A no says only that the protein was not detected with the bait. For part of these data: Sequences can lack the tags named with a protein.

On to HAM-3 (from UniProt Q7SCF4 1-862), for which the binding result in test [1] is reported as “binds weakly”.
Still for that read-out and setting: as for “type V myosin/NCU01440 (from UniProt V5INB2)”, the entry is “binds”.
Same read-out and setting: the value for “nuclear pore protein NCU01702 (from UniProt Q7RVQ2)” was “binds”.
Consider HAM-5 (from UniProt V5IN79 1-1686), for which the binding entry in test [2] and in test [1] was “binds” each time.
On to CLA-4 (enzyme), for which the binding result in test [2] is recorded as “no binding”.
Take STE-50 (from UniProt Q7RXY9): the binding result in test [2] is given as “binds”.
On to “adenylate cyclase capping protein CAP-1 (from UniProt Q7SAN3)”, for which the results for the binding entry in test [3] and in test [1] were “binds” and “no binding”, respectively.
For the molecule NRC-1 (enzyme), in test [2], the binding result is recorded as “binds”.
For the molecule HAM-2, in test [2], the binding entry is “no binding”.
As for “serine/threonine kinase YPK-1 (from UniProt Q7RVX6) (enzyme)”, the binding entry in test [1] is “binds”.

B1: STE-20 (enzyme, UniProt Q7RZD3 1-954)
chain: T1 sequence
As to B1, the binding entry in test [4] is on record as “binds”; in test [5], “no binding”; in test [6] it was “no binding”.

B2: RAS-2/SMCO-7 (protein, UniProt Q01387 1-229)
chain: MVGNKQVLYKLVVLGDGGVGKTALTIQLCLEHFVETYDPTIEDSYRKQVVIDGQACMLEVLDTAGQEEYTALRDQWIRDGEGFVLVYSISSRSSFARIKKFHHQIQRVKESTSSPSAYPGSSPLAATNPSAPVPIMLVGNKSDRVTEREVSTQEGHALARELGCEFTEASAKTRTNVEKAFYDVVKQLRKQRQQGQSTPRALPPSGNSKSEKYSGTEKPKRPRGKCLII
With B2, the binding entry is on record as “binds” in test [7], “binds” in test [4], “no binding” in test [5] and “no binding” in test [6].

B3: PP-1 (protein, UniProt Q1K623 1-722)
chain: MYSSQHANMAAASQKPETFMLSTEAQQALPHDAQVALQQVDNLKYFLISAPVDWQPDQYIRRFLLPTGEYVSCVLWNNLFHISGTDIVRCLSFRFQAFGRPVKNSKKFEEGIFSDLRNLKAGSDASLEEPKSPFLDFLYKNNCIRTQKKQKVFFWYSVPHDRLFLDALERDLKREKMGQEATTVAVSEPALSFQYDSSQSLFESLTKAQQANSSSFPAQQLAFQSQSTSPILRAADSMPPPQMMQPMPSQMMQPMGQNMGQQMSQTMSQSMAPLSDGLEAMVSYGAMTMGPAMTCPQPMVKREPDYGRVQYTQNGVPITQVHQRHTSMPAYGLECSPAPSFVSSHFEDYSQRGLSFEPLTPPHQQMGVIGEPAYIANEETGLYTAIPDHLNAGALNGMMQLPPSNLAAPSYPRSYASSSISQDHARGYSPMAAYTVIEGSPTYKQRRRRSSIPPSVLSATTAIAAGTPGVYKPSDLRRSVSASVGPVAEGDESADNSPPGLTYSNPAINMARQQHHEMLELSRHGTPLSTVEGSPALNPMNISMGQSYGPLNDDELAPMSERQMSQGHPGVIRRARSATVSELGPYPQKSHSCPIPSCGRVFKRLEHLKRHVRTHTQERPYVCSYCQKAFSRSDNLAQHKRTHDRGDGSEGTSNLSGEEEEEYSSPTSEGGYVHASGAPSNGNSSTPQSTMYNNLQTLSMPMTISEPQPINTGEMMRNELEF
On to B3, for which the binding result in test [4] is reported as “no binding”; in test [5], “binds”; in test [6] it was “no binding”.

B4: HAM-4 (protein, UniProt Q7SDL6 1-797)
chain: MTAVANPPSFANLNRPGWINGDQSLNPMNPDDNRMNMFMSRKSLQRSNSSSSVASTASSSSTSTVTSTGSVSTAPTNGSPNSTTSSGGVNGNGNPMSVGGDTAPWSNSQALRKKPQPKNNNTNSWTNARPEGASDLSRSATGRPPMANGVNGAPPTMHHQQQQPSSQPQPQQQPQSAMSAPNQMMSQSNLARPGADQMAPQRLPVLSLLSLNGTFERKTISVPFYPDIMKIGRQTNAKTVPLPTNGFFDSKVLSRQHAEIWANQDGKIFIKDVKSSNGTFVNGNRLSPENRESEPHELQSQDHLELGIDIVSEDQKTVVHHKVAAKVEHAGFVTQTNNLLDMNFGDLDPSNGGMMMPMGGMPPFRGRAGSQASLASNGRMMPGNMGGPIPGMAQQRQFWLNPVTTEHIVKKLQTEMRNAKLQHHDLIRTGQFITALVTKDDIKNQDKPEDIEPPKLHVNGNIPFKSEISKTRFSEPPAPPPSQPLPEKPDVARASDAPSLKRGITERPKSHPSPKDTNVNQVVQLTEALNLAKKELDSNSARVRDLERMLNEEREARLQAEVLMQKMAVSQQAVTNGTSVAALTNGHSATERVFEPPTEQTETNDASALGGLESEKSPKPETSNIEAMAAAFQARIESMTTEMKGLREQLEAFRNRAEQAEAERDADRKTLSQLILQIRQRDEEEQQAAARKSRSSSRGRSQQGGKDKEVDEALPKANGAAVTGPTQSDGSSEDHAEEVPSLALTDTLKPSSSPALVYPHQDRALIQAMPYVSVLGVVFIGMGLMAYLNGWQPQAKN
With B4, the binding result in test [7], in test [8], in test [4], in test [5] and in test [6] was “no binding” throughout.

B5: RCO-1 (protein, UniProt P78706 1-604)
chain: MSMYPHRPIAGAPIQNMGRLNELLDGIRMEFESQARQYETCQHDLATQLQELQVIREKVFQMEQHQMNVKQKYEDEIALLRRQLEARGGAPGNMNPPPQHPGQQQPPAIGLGSNVFSAIMAGQGGQALVPPPPPPQQQEQPAHMPAPPGLQGPPPPPPPPSQQPPFQQQYQGPQGPGNFPPQPPQSTASPGPAGKRGIGRPPAGGPATPQINTPIPYNGGPAQSPQVPTHPTPDHTRMAQHHQPPPPPPSQTNALSELDPDRLPNHIKKMKDDWWVIFNAAVPRVLDVELVHTLQHESVVCCVRFSMDGKYVATGCNRSAQIYDVETGEKLCILQDENIDLTGDLYIRSVCFSPDGKYLATGAEDKLIRVWDIQSRTIRNTFHGHEQDIYSLDFSRDGRTIASGSGDRTVRLWDIETGQNTSVLSIEDGVTTVAISPDKQFVAAGSLDKSVRVWDMRGYLAERLEGPDGHKDSVYSVAFSPDGRNLVSGSLDKTIKMWELSAPRGIPSSAPPKGGRCIKTFEGHRDFVLSVALTPDSQWVLSGSKDRGVQFWDPRTGHTQLMLQGHKNSVISVAPSPVTGPNGVGYFATGSGDMRARIWSYSRI
In the case of B5, the binding result in test [4] is given as “no binding”; in test [5], “binds”; in test [6] it was “no binding”.
